Laboratory results from article PMC7594721, “Synthesis and biological activity of 2-cyanoacrylamide derivatives tethered to imidazopyridine as TAK1 inhibitors” (Journal of Enzyme Inhibition and Medicinal Chemistry, 2020).

Experiment: HPLC analysis for reversible addition of BME

For `Cc1cccc(/C=C(\C#N)C(=O)N[C@@H]2CCN(c3c(Cl)cnc4[nH]c(-c5ccc(N6CCN(C)CC6)cc5)nc34)C2)n1` [Compound 13h, (R,E)-N-(1–(6-chloro-2–(4-(4-methylpiperazin-1-yl)phenyl)-3H-imidazo[4,5-b]pyridin-7-yl)pyrrolidin-3-yl)-2-cyano-3-(6-methylpyridin-2-yl)acrylamide], the “conversion to the BME adduct” value (48 mM BME in PBS pH 7.4 / DMSO, after 30 min) was “full conversion to the BME adduct” and the “reversibility of BME adduct formation” value (adduct mixture diluted 10-fold, HPLC and HRMS) was “gradually reverted to 13h”.
